Measured values as given in US20020002277A1, “Inhibitors of platelet activation and recruitment” (priority 1998, published 2002).

B1: pIL2LSolCD39: untagged soluble human CD39 with huIL2 leader, 12 mature IL2 residues and three amino acid linker (SEQ ID NO:7) (protein)
chain: MALWIDRMQLLSCIALSLALVTNSAPTSSSTKKTQLTSSTQNKALPENVKYGIVLDAGSSHTSLYIYKWPAEKENDTGVVHQVEECRVKGPGISKFVQKVNEIGIYLTDCMERAREVIPRSQHQETPVYLGATAGMRLLRMESEELADRVLDVVERSLSNYPFDFQGARIITGQEEGAYGWITINYLLGKFSQKTRWFSIVPYETNNQETFGALDLGGASTQVTFVPQNQTIESPDNALQFRLYGKDYNVYTHSFLCYGKDQALWQKLAKDIQVASNEILRDPCFHPGYKKVVNVSDLYKTPCTKRFEMTLPFQQFEIQGIGNYQQCHQSILELFNTSYCPYSQCAFNGIFLPPLQGDFGAFSAFYFVMKFLNLTSEKVSQEKVTEMMKKFCAQPWEEIKTSYAGVKEKYLSEYCFSGTYILSLLLQGYHFTADSWEHIHFIGKIQGSDAGWTLGYMLNLTNMIPAEQPLSTPLSHST
B2: pIL2LTrim1: huIL2 leader joined to solCD39 with an intervening alanine residue (SEQ ID NO:27) (protein)
chain: MALWIDRMQLLSCIALSLALVTNSATQNKALPENVKYGIVLDAGSSHTSLYIYKWPAEKENDTGVVHQVEECRVKGPGISKFVQKVNEIGIYLTDCMERAREVIPRSQHQETPVYLGATAGMRLLRMESEELADRVLDVVERSLSNYPFDFQGARIITGQEEGAYGWITINYLLGKFSQKTRWFSIVPYETNNQETFGALDLGGASTQVTFVPQNQTIESPDNALQFRLYGKDYNVYTHSFLCYGKDQALWQKLAKDIQVASNEILRDPCFHPGYKKVVNVSDLYKTPCTKRFEMTLPFQQFEIQGIGNYQQCHQSILELFNTSYCPYSQCAFNGIFLPPLQGDFGAFSAFYFVMKFLNLTSEKVSQEKVTEMMKKFCAQPWEEIKTSYAGVKEKYLSEYCFSGTYILSLLLQGYHFTADSWEHIHFIGKIQGSDAGWTLGYMLNLTNMIPAEQPLSTPLSHST
B3: pIL2LTrim2: huIL2 leader with an intervening Ala-Ser-Ser linker preceding solCD39 (protein)
chain: TQNKALPENVKYGIVLDAGSSHTSLYIYKWPAEKENDTGVVHQVEECRVKGPGISKFVQKVNEIGIYLTDCMERAREVIPRSQHQETPVYLGATAGMRLLRMESEELADRVLDVVERSLSNYPFDFQGARIITGQEEGAYGWITINYLLGKFSQKTRWFSIVPYETNNQETFGALDLGGASTQVTFVPQNQTIESPDNALQFRLYGKDYNVYTHSFLCYGKDQALWQKLAKDIQVASNEILRDPCFHPGYKKVVNVSDLYKTPCTKRFEMTLPFQQFEIQGIGNYQQCHQSILELFNTSYCPYSQCAFNGIFLPPLQGDFGAFSAFYFVMKFLNLTSEKVSQEKVTEMMKKFCAQPWEEIKTSYAGVKEKYLSEYCFSGTYILSLLLQGYHFTADSWEHIHFIGKIQGSDAGWTLGYMLNLTNMIPAEQPLSTPLSHST
modifications: left off: small tags and cut ends

Assay: ELISA (anti-CD39) of solCD39 in conditioned medium
Settings: COS-1 cells, 10 cm plates, 5 days, 1x supernatant

Compared with B1, B2 is 3.6-fold lower in “[CD39] in CM” value: 0.75 µg/mL for the first, 0.21 µg/mL for the second.

For B3, the “[CD39] in CM” value was 0.21 µg/mL.

Same assay, conditions: COS-1 cells, T175 flasks (30 mL), 5-day 1x supernatant

Going from B1 to B2, the “[CD39] in CM” value falls from 0.796 µg/mL to 0.143 µg/mL (5.6-fold).

For B3, the “[CD39] in CM” value was 0.113 µg/mL.
